# The list shows a part of the results.
# B1: Clec39 (Caenorhabditis elegans) (protein)
# chain: MTSFYDNSSSSSKPVPLKTSRAQKIQILIFDNWKLILYGAISTLILVLAIMFSTLFFALPAANCDENSEPTKYYTTNAEITTTITTTNQKTTSTASSHLTTISSSATQIYSESSSSSTSQSTFTQSPPEISTTTIAPSDFSCQHGFTLVNNKCWKLVTSNQARPDADKICNGYGGATLFSIKSEQDNRAMIHFVKGQDIDFLWSGLLCSAGEPISCIWDIENGSTANYSNFADGFPNIVYGNCVYFITSGDEAGQWGNEQCGQVMNFVCELPATFQGKDGCKNNYEKSCYLRFDLNLTVPQAQNFCLEKCANLVSIHSANEVRFIMTIYDFIGEILIGALAPAQDFIYWLDGTPANYNNLKFFYNSTCVHMTVAPGMQNVGKWFTRFCTETGKFLCKRSIKNSCT
# Key:
# Test in all cases: glycan array binding signal (z-score within array); higher = stronger binding
# Conditions in all cases: glycan notation: IUPAC condensed, linker removed
# Gal(b1-4)Glc = biological target: Gal(b1-4)Glc
# Summary of the method: (§1)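 The Consortium for Functional Glycomics database supplied 3228 glycan arrays, of which those lacking an available protein sequence were dropped. The binding signal, a within-array Z-score, was averaged across arrays of the same protein sequence and across linkers. Negative scores can be read as non-binding.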
# Gal(b1-4)Glc6S = biological target: Gal(b1-4)Glc6S
# Summary of the method: as §1
# Gal(b1-4)GlcNAc = biological target: Gal(b1-4)GlcNAc
# Summary of the method: as §1
# [1] = biological target: Gal(b1-4)GlcNAc(a1-6)Gal(b1-4)GlcNAc
# Summary of the method: as §1
# Gal(b1-4)GlcNAc(b1-2)Man = biological target: Gal(b1-4)GlcNAc(b1-2)Man
# Summary of the method: as §1
# [2] = biological target: Gal(b1-4)GlcNAc(b1-2)Man(a1-3)Man(b1-4)GlcNAc(b1-4)GlcNAc
# Summary of the method: as §1
# [3] = biological target: Gal(b1-4)GlcNAc(b1-2)Man(a1-3)[Gal(b1-4)GlcNAc(b1-2)Man(a1-6)]Man(b1-4)GlcNAc(b1-4)GlcNAc
# Summary of the method: as §1
# [4] = biological target: Gal(b1-4)GlcNAc(b1-2)Man(a1-3)[Gal(b1-4)GlcNAc(b1-2)Man(a1-6)]Man(b1-4)GlcNAc(b1-4)[Fuc(a1-6)]GlcNAc
# Summary of the method: as §1
# [5] = biological target: Gal(b1-4)GlcNAc(b1-2)Man(a1-3)[Gal(b1-4)GlcNAc(b1-2)Man(a1-6)][Gal(b1-4)GlcNAc(b1-4)]Man(b1-4)GlcNAc(b1-4)[Fuc(a1-6)]GlcNAc
# Summary of the method: as §1
# [6] = biological target: Gal(b1-4)GlcNAc(b1-2)Man(a1-3)[Gal(b1-4)GlcNAc(b1-2)Man(a1-6)][GlcNAc(b1-4)]Man(b1-4)GlcNAc(b1-4)[Fuc(a1-6)]GlcNAc
# Summary of the method: as §1
# [7] = biological target: Gal(b1-4)GlcNAc(b1-2)Man(a1-3)[GlcNAc(b1-2)Man(a1-6)]Man(b1-4)GlcNAc(b1-4)GlcNAc
# Summary of the method: as §1
# [8] = biological target: Gal(b1-4)GlcNAc(b1-2)Man(a1-3)[GlcNAc(b1-4)][Gal(b1-4)GlcNAc(b1-2)Man(a1-6)]Man(b1-4)GlcNAc(b1-4)GlcNAc
# Summary of the method: as §1
# [9] = biological target: Gal(b1-4)GlcNAc(b1-2)Man(a1-3)[Man(a1-6)]Man(b1-4)GlcNAc(b1-4)GlcNAc
# Summary of the method: as §1
# [10] = biological target: Gal(b1-4)GlcNAc(b1-2)Man(a1-6)Man(b1-4)GlcNAc(b1-4)GlcNAc
# Summary of the method: as §1
# [11] = biological target: Gal(b1-4)GlcNAc(b1-2)Man(a1-6)[GlcNAc(b1-2)Man(a1-3)]Man(b1-4)GlcNAc(b1-4)GlcNAc
# Summary of the method: as §1
# [12] = biological target: Gal(b1-4)GlcNAc(b1-2)Man(a1-6)[Man(a1-3)]Man(b1-4)GlcNAc(b1-4)GlcNAc
# Summary of the method: as §1
# [13] = biological target: Gal(b1-4)GlcNAc(b1-2)[Gal(b1-4)GlcNAc(b1-4)]Man(a1-3)[Gal(b1-4)GlcNAc(b1-2)Man(a1-6)]Man(b1-4)GlcNAc(b1-4)GlcNAc
# Summary of the method: as §1
# [14] = biological target: Gal(b1-4)GlcNAc(b1-2)[Gal(b1-4)GlcNAc(b1-4)]Man(a1-3)[Gal(b1-4)GlcNAc(b1-2)[Gal(b1-4)GlcNAc(b1-6)]Man(a1-6)]Man(b1-4)GlcNAc(b1-4)GlcNAc
# Summary of the method: as §1
# [15] = biological target: Gal(b1-4)GlcNAc(b1-2)[Gal(b1-4)GlcNAc(b1-4)]Man(a1-3)[GlcNAc(b1-4)][Gal(b1-4)GlcNAc(b1-2)Man(a1-6)]Man(b1-4)GlcNAc(b1-4)GlcNAc
# Summary of the method: as §1
# [16] = biological target: Gal(b1-4)GlcNAc(b1-2)[Gal(b1-4)GlcNAc(b1-4)]Man(a1-3)[GlcNAc(b1-4)][Gal(b1-4)GlcNAc(b1-2)[Gal(b1-4)GlcNAc(b1-6)]Man(a1-6)]Man(b1-4)GlcNAc(b1-4)GlcNAc
# Summary of the method: as §1
# [17] = biological target: Gal(b1-4)GlcNAc(b1-2)[Gal(b1-4)GlcNAc(b1-6)]Man(a1-6)[Gal(b1-4)GlcNAc(b1-2)Man(a1-3)]Man(b1-4)GlcNAc(b1-4)GlcNAc
# Summary of the method: as §1
# [18] = biological target: Gal(b1-4)GlcNAc(b1-2)[Gal(b1-4)GlcNAc(b1-6)]Man(a1-6)[Gal(b1-4)GlcNAc(b1-2)Man(a1-3)]Man(b1-4)GlcNAc(b1-4)[Fuc(a1-6)]GlcNAc
# Summary of the method: as §1
# [19] = biological target: Gal(b1-4)GlcNAc(b1-2)[Gal(b1-4)GlcNAc(b1-6)]Man(a1-6)[GlcNAc(b1-4)][Gal(b1-4)GlcNAc(b1-2)Man(a1-3)]Man(b1-4)GlcNAc(b1-4)GlcNAc
# Summary of the method: as §1
# [20] = biological target: Gal(b1-4)GlcNAc(b1-2)[Gal(b1-4)GlcNAc(b1-6)]Man(a1-6)[GlcNAc(b1-4)][Gal(b1-4)GlcNAc(b1-2)[Gal(b1-4)GlcNAc(b1-4)]Man(a1-3)]Man(b1-4)GlcNAc(b1-4)[Fuc(a1-6)]GlcNAc
# Summary of the method: as §1
# [21] = biological target: Gal(b1-4)GlcNAc(b1-3)Gal(b1-3)GalNAc
# Summary of the method: as §1
# [22] = biological target: Gal(b1-4)GlcNAc(b1-3)Gal(b1-3)GlcNAc
# Summary of the method: as §1
# [23] = biological target: Gal(b1-4)GlcNAc(b1-3)Gal(b1-4)Glc
# Summary of the method: as §1
# [24] = biological target: Gal(b1-4)GlcNAc(b1-3)Gal(b1-4)GlcNAc
# Summary of the method: as §1
# [25] = biological target: Gal(b1-4)GlcNAc(b1-3)Gal(b1-4)GlcNAc(b1-2)Man(a1-3)[Gal(b1-4)GlcNAc(b1-3)Gal(b1-4)GlcNAc(b1-2)Man(a1-6)]Man(b1-4)GlcNAc(b1-4)GlcNAc
# Summary of the method: as §1
# [26] = biological target: Gal(b1-4)GlcNAc(b1-3)Gal(b1-4)GlcNAc(b1-2)Man(a1-3)[Gal(b1-4)GlcNAc(b1-3)Gal(b1-4)GlcNAc(b1-2)Man(a1-6)]Man(b1-4)GlcNAc(b1-4)[Fuc(a1-6)]GlcNAc
# Summary of the method: as §1
# [27] = biological target: Gal(b1-4)GlcNAc(b1-3)Gal(b1-4)GlcNAc(b1-2)[Gal(b1-4)GlcNAc(b1-3)Gal(b1-4)GlcNAc(b1-6)]Man(a1-6)[Gal(b1-4)GlcNAc(b1-3)Gal(b1-4)GlcNAc(b1-2)Man(a1-3)]Man(b1-4)GlcNAc(b1-4)GlcNAc
# Summary of the method: as §1
# [28] = biological target: Gal(b1-4)GlcNAc(b1-3)Gal(b1-4)GlcNAc(b1-2)[Gal(b1-4)GlcNAc(b1-3)Gal(b1-4)GlcNAc(b1-6)]Man(a1-6)[Gal(b1-4)GlcNAc(b1-3)Gal(b1-4)GlcNAc(b1-2)Man(a1-3)]Man(b1-4)GlcNAc(b1-4)[Fuc(a1-6)]GlcNAc
# Summary of the method: as §1
# [29] = biological target: Gal(b1-4)GlcNAc(b1-3)Gal(b1-4)GlcNAc(b1-3)Gal(b1-4)GlcNAc
# Summary of the method: as §1
# [30] = biological target: Gal(b1-4)GlcNAc(b1-3)Gal(b1-4)GlcNAc(b1-3)Gal(b1-4)GlcNAc(b1-2)Man(a1-3)[Gal(b1-4)GlcNAc(b1-3)Gal(b1-4)GlcNAc(b1-3)Gal(b1-4)GlcNAc(b1-2)Man(a1-6)]Man(b1-4)GlcNAc(b1-4)GlcNAc
# Summary of the method: as §1
# [31] = biological target: Gal(b1-4)GlcNAc(b1-3)Gal(b1-4)GlcNAc(b1-3)Gal(b1-4)GlcNAc(b1-2)Man(a1-3)[Gal(b1-4)GlcNAc(b1-3)Gal(b1-4)GlcNAc(b1-3)Gal(b1-4)GlcNAc(b1-2)Man(a1-6)]Man(b1-4)GlcNAc(b1-4)[Fuc(a1-6)]GlcNAc
# Summary of the method: as §1
# [32] = biological target: Gal(b1-4)GlcNAc(b1-3)Gal(b1-4)GlcNAc(b1-3)Gal(b1-4)GlcNAc(b1-2)[Gal(b1-4)GlcNAc(b1-3)Gal(b1-4)GlcNAc(b1-3)Gal(b1-4)GlcNAc(b1-6)]Man(a1-6)[Gal(b1-4)GlcNAc(b1-3)Gal(b1-4)GlcNAc(b1-3)Gal(b1-4)GlcNAc(b1-2)Man(a1-3)]Man(b1-4)GlcNAc(b1-4)[Fuc(a1-6)]GlcNAc
# Summary of the method: as §1
# [33] = biological target: Gal(b1-4)GlcNAc(b1-3)Gal(b1-4)GlcNAc(b1-3)Gal(b1-4)GlcNAc(b1-3)Gal(b1-4)GlcNAc(b1-2)Man(a1-3)[Gal(b1-4)GlcNAc(b1-3)Gal(b1-4)GlcNAc(b1-3)Gal(b1-4)GlcNAc(b1-3)Gal(b1-4)GlcNAc(b1-2)Man(a1-6)]Man(b1-4)GlcNAc(b1-4)GlcNAc
# Summary of the method: as §1
binder,measurement,setting,value
B1,glycan array binding signal (z-score),Gal(b1-4)Glc,-0.058
same,glycan array binding signal (z-score),Gal(b1-4)Glc6S,0.767
same,glycan array binding signal (z-score),Gal(b1-4)GlcNAc,-0.525
same,glycan array binding signal (z-score),[1],-0.461
same,glycan array binding signal (z-score),Gal(b1-4)GlcNAc(b1-2)Man,-0.206
same,glycan array binding signal (z-score),[2],-0.931
same,glycan array binding signal (z-score),[3],-1.01
same,glycan array binding signal (z-score),[4],0.691
same,glycan array binding signal (z-score),[5],-0.793
same,glycan array binding signal (z-score),[6],-0.726
same,glycan array binding signal (z-score),[7],-0.612
same,glycan array binding signal (z-score),[8],-0.063
same,glycan array binding signal (z-score),[9],0.19
same,glycan array binding signal (z-score),[10],-0.965
same,glycan array binding signal (z-score),[11],-0.913
same,glycan array binding signal (z-score),[12],-0.475
same,glycan array binding signal (z-score),[13],0.129
same,glycan array binding signal (z-score),[14],-0.277
same,glycan array binding signal (z-score),[15],-0.762
same,glycan array binding signal (z-score),[16],-0.778
same,glycan array binding signal (z-score),[17],-0.353
same,glycan array binding signal (z-score),[18],-0.198
same,glycan array binding signal (z-score),[19],0.154
same,glycan array binding signal (z-score),[20],1.43
same,glycan array binding signal (z-score),[21],-0.537
same,glycan array binding signal (z-score),[22],-0.657
same,glycan array binding signal (z-score),[23],0.801
same,glycan array binding signal (z-score),[24],0.14
same,glycan array binding signal (z-score),[25],0.623
same,glycan array binding signal (z-score),[26],1.46
same,glycan array binding signal (z-score),[27],0.982
same,glycan array binding signal (z-score),[28],0.173
same,glycan array binding signal (z-score),[29],-0.007
same,glycan array binding signal (z-score),[30],0.198
same,glycan array binding signal (z-score),[31],-0.521
same,glycan array binding signal (z-score),[32],0.201
same,glycan array binding signal (z-score),[33],1.3

# 2 records drawn at random from the list so far, as already listed:
binder,measurement,setting,value
B1,glycan array binding signal (z-score),Gal(b1-4)Glc6S,0.767
same,glycan array binding signal (z-score),[22],-0.657

# Reference: the supplement of paper PMC8728848
